Consider 1 substance from patent US7217808B2 (Takeda Pharmaceutical Company, Ltd., priority 2001, dated 2007).

No end group written: not given here.

The nature of this series: general procedure: Boc solid-phase peptide synthesis; p-methyl BHA resin; HOBt/DCC. To be noted: whole synthesis, scale 0.23 g resin.

SAGATANLPRS-NH2 came in with an isolated mass of 71 mg.
